Earlier results as cited in patent US20120101046A1, “PROPHYLACTIC OR THERAPEUTIC AGENT FOR RETINAL DISEASE AND METHOD FOR PROPHYLAXIS OR THERAPY OF RETINAL DISEASE USING JNK (C-JUN AMINO-TERMINAL KINASE) - INHIBITORY PEPTIDE, AND USE OF THE PEPTIDE” (priority 2009, published 2012).
At least one structure is not confirmed: it was looked up by name or label, or the drawing left a doubt.

Tests used:
[1] = test system: ischemia/reperfusion-induced eye neuropathy; settings: rats, intraperitoneal administration; cited from earlier work
[2] = test system: rat cultured retinal ganglion cells; settings: death induced by serum deprivation and glutamic acid; cited from earlier work
[3] = test system: ischemic retinopathy; settings: intravitreal administration; cited from earlier work

**Q.** Which “protection against ischemia/reperfusion-induced eye neuropathy” value [1] does the source give for `Oc1c2ccccc2c2c3c(cccc13)N=N2` [SP600125] here?
**A.** The value was “protects against ischemia/reperfusion-induced eye neuropathy”.

**Q.** What about the “suppression of death of retinal ganglion cells” value [2] of the same compound?
**A.** The value was “suppresses the death of rat cultured retinal ganglion cells”.

**Q.** And the “protection against ischemic retinopathy” value [3]?
**A.** The value was “cannot protect against ischemic retinopathy”.
